Experimental data as given in the supplement of paper PMC10849652.
This is one part of the list.

Sequences of proteins named here, by UniProt entry; tags and fusion partners are left off. A change or cut given only in a name is not applied to a line headed by its entry.
UniProt Q13572: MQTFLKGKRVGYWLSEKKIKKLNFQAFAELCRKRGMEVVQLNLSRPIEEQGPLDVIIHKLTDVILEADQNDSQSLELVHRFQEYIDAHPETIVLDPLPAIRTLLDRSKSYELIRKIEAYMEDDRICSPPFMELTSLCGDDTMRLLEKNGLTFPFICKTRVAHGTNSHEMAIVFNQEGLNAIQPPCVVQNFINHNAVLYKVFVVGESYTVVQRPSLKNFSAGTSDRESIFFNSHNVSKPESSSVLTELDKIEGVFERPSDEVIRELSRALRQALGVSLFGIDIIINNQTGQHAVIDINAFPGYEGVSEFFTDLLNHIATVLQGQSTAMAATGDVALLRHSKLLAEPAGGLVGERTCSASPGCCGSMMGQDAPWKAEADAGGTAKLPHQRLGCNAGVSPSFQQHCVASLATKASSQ
UniProt O00410: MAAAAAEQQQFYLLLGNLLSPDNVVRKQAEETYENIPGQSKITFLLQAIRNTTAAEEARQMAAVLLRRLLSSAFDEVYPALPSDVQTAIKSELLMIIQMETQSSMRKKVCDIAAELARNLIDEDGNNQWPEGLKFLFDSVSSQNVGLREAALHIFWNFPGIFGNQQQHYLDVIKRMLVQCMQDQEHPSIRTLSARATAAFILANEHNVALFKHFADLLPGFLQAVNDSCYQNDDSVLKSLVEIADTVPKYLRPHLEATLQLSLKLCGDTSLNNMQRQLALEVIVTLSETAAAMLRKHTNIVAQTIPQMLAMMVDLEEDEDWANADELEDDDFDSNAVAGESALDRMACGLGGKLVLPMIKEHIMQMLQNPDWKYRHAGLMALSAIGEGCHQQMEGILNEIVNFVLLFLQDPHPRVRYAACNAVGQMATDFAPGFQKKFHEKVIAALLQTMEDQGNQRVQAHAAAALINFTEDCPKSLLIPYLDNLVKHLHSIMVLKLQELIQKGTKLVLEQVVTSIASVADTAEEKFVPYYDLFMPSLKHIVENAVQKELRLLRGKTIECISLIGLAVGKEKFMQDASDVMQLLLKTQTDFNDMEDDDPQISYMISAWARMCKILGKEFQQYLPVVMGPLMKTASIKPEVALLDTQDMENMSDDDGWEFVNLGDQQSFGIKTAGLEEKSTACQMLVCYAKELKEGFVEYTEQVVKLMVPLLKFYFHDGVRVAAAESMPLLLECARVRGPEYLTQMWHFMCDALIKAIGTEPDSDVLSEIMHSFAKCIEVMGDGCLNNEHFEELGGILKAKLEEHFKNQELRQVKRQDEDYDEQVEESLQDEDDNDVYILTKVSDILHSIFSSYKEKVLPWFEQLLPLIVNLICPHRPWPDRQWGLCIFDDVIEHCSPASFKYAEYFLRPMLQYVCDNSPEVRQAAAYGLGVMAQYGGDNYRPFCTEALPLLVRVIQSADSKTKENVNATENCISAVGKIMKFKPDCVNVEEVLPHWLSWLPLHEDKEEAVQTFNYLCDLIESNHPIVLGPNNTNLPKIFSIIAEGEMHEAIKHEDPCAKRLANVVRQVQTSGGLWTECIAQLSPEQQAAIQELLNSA
UniProt Q86U28: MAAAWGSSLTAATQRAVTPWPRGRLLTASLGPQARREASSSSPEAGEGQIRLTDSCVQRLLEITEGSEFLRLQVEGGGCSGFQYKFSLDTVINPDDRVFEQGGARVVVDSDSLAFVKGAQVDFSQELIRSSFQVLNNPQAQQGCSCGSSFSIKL
UniProt Q9NX62: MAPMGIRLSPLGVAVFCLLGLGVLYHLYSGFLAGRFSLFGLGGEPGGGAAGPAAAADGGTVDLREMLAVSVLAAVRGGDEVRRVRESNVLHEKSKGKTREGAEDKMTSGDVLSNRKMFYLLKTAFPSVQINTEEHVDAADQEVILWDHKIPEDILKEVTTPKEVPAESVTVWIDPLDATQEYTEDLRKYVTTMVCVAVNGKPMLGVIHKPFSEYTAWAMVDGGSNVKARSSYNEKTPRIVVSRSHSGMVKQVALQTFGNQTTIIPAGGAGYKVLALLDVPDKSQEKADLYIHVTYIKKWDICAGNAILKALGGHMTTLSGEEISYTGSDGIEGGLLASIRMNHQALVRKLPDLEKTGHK
UniProt Q06033: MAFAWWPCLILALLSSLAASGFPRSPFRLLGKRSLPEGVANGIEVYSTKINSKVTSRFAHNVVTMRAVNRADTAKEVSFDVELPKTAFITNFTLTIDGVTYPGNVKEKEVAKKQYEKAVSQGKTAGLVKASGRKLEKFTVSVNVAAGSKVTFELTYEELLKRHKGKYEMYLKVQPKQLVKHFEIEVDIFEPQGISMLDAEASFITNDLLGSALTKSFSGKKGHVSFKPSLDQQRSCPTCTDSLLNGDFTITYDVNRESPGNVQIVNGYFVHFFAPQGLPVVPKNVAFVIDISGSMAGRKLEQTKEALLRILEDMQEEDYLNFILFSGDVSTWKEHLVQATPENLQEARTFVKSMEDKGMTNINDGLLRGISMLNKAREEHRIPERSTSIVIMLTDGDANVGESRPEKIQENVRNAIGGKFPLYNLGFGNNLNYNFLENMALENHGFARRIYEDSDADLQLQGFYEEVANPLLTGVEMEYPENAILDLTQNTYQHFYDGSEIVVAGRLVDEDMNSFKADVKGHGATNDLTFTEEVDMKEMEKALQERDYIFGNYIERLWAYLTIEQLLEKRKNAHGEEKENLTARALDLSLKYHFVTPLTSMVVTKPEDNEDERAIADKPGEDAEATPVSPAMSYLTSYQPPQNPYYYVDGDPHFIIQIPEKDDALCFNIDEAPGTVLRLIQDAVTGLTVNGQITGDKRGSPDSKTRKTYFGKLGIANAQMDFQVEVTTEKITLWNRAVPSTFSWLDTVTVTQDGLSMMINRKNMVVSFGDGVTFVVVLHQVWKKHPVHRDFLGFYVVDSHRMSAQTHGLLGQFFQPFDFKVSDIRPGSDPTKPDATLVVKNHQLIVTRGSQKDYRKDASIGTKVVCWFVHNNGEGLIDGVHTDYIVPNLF
UniProt Q96T52: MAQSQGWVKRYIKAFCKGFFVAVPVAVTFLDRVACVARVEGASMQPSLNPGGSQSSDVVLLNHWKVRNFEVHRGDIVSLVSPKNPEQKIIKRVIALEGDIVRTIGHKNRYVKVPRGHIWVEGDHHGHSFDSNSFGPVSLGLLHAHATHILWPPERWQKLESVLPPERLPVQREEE
UniProt Q9NRY2: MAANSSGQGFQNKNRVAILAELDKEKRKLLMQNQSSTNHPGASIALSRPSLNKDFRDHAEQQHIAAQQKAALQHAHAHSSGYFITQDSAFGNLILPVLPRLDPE
UniProt O00425, whole entry, looked up: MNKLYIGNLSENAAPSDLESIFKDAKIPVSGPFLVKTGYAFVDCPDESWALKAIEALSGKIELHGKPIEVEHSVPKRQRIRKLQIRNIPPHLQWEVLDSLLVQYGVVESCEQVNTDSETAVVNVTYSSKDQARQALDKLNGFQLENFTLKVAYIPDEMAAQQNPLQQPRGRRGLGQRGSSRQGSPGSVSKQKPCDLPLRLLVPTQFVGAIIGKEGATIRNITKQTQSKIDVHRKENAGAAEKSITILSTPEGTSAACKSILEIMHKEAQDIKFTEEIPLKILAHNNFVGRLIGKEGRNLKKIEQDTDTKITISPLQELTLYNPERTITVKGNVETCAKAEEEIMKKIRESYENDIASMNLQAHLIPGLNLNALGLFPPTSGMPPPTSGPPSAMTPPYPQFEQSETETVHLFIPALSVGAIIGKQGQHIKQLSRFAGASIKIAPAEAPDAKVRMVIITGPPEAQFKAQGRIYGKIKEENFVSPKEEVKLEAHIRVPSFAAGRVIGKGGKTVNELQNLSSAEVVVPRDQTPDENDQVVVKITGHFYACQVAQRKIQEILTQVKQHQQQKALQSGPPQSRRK
UniProt Q8N6C5: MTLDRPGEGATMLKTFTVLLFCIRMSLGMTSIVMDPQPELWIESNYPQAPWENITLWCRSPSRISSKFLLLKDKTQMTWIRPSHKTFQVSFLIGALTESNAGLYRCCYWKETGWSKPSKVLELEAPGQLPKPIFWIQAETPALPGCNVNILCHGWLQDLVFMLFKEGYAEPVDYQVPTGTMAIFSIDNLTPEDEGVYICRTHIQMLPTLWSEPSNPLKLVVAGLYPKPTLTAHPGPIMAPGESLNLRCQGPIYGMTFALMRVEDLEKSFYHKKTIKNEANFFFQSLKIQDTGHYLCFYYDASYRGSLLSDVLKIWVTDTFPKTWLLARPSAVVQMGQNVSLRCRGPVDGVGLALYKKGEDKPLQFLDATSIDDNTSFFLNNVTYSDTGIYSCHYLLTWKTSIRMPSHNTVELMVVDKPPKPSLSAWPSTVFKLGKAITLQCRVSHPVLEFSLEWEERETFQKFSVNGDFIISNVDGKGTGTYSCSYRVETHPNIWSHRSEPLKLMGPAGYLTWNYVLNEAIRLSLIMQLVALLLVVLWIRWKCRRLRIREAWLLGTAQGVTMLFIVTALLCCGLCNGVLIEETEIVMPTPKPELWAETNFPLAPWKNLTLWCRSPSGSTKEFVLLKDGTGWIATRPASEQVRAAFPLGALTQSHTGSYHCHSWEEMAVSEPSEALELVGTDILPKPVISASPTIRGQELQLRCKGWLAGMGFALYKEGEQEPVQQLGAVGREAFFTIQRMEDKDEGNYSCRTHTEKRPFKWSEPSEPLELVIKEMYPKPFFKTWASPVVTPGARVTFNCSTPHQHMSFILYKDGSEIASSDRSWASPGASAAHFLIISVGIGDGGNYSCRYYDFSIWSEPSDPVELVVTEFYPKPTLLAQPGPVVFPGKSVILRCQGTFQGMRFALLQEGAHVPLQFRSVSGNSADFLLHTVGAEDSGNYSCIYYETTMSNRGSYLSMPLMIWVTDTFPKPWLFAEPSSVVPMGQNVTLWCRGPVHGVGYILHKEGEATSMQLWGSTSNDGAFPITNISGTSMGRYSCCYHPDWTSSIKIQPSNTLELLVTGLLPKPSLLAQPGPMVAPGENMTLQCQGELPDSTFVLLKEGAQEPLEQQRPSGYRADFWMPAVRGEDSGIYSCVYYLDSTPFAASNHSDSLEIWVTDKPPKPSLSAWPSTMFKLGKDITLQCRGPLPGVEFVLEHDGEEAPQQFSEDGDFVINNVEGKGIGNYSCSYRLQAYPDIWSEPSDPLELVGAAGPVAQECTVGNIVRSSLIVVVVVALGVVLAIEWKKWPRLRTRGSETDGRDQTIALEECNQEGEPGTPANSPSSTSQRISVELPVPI
UniProt Q9BT40: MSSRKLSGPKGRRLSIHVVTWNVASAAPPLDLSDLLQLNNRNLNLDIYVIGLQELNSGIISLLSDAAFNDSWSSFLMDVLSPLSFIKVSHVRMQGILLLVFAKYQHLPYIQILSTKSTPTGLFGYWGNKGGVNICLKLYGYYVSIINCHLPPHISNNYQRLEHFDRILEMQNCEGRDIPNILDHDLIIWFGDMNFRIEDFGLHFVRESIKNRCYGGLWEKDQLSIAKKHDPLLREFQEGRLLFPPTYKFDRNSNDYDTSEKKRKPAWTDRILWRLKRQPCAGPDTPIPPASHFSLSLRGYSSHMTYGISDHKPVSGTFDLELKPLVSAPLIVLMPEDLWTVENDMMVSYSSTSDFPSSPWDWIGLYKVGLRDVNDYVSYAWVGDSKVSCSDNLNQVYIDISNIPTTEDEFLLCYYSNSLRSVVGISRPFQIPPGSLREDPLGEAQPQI
UniProt P80217: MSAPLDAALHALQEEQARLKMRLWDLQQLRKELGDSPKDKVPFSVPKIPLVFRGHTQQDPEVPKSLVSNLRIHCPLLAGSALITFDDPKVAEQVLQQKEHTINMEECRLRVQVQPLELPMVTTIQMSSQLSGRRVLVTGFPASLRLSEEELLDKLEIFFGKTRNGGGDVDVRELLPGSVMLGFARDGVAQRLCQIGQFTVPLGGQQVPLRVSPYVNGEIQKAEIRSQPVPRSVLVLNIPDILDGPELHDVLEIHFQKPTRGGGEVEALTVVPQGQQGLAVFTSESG
UniProt P05161, whole entry, looked up: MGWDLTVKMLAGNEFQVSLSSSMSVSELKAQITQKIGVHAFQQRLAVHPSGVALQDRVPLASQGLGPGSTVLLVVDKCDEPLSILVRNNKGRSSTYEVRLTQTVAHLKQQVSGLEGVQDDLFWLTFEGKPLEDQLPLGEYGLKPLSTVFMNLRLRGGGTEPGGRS
UniProt Q96AB3: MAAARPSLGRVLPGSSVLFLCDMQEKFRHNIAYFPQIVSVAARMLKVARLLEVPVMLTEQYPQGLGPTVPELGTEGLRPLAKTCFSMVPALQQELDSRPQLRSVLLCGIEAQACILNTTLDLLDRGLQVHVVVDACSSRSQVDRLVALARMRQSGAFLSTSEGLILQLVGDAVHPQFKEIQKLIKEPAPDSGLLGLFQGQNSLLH
UniProt Q96A47: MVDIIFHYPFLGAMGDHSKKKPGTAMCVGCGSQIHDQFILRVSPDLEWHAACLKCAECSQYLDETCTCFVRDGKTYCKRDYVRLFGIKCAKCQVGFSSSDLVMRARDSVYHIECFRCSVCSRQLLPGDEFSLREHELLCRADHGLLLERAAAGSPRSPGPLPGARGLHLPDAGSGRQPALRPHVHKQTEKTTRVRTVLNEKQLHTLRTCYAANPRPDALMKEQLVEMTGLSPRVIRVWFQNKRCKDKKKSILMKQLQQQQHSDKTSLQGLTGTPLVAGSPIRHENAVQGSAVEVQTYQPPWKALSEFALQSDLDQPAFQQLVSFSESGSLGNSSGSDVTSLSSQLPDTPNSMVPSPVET

The targets below were run with c1cn2cc(-c3ccc4cn[nH]c4c3)nc(Nc3ccc(N4CCOCC4)cc3)c2n1 [entospletinib] (assay: log2 fold change, soluble protein after heating vs DMSO (PISA); higher = thermal stabilisation; K562 cells, 10 uM, 30 min; active = over 0.2 and 3.5 SD of the protein, either way, in both replicates (recomputed)).
Method in brief: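 K562 cells (2×10^6 cells/mL) were treated with 10 μM compound for 30 min, and aliquots were heated for 3 min over 48°C-58°C. Pooled aliquots were extracted in PBS with 0.5% NP-40 at 4°C, and the supernatant after 21,000xg for 90 min was measured by TMTpro 16plex LC-MS/MS with channel sums equalised. Reported thermal stability, relative to control samples and from duplicates, is a log2 fold change.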

log2 fold change, inactive:
IMPDH1 isoform 6 (UniProt P20839) -0.011
ITGB1 (UniProt P05556) -0.02
ITGB5 (UniProt P18084) -0.006
IGF2BP1 (UniProt Q9NZI8) 0.26
IRF2BP2 (UniProt Q7Z5L9) 0.019
ITPK1 (UniProt Q13572) -0.039
ITPKA (UniProt P23677) 0.045
IPO5 isoform 3 (UniProt O00410) 0.031
IGHG1 (UniProt P01857) -0.037
ISCA2 (UniProt Q86U28) 0.011
IMPAD1 (UniProt Q9NX62) -0.007
ITIH3 (UniProt Q06033) 0.135
IMMP2L (UniProt Q96T52) -0.041
INIP (UniProt Q9NRY2) -0.058
IGF2BP3 (UniProt O00425) 0.269
IKBIP (UniProt Q70UQ0) -0.005
IGSF1 isoform 4 (UniProt Q8N6C5) -0.11
INPP5K (UniProt Q9BT40) 0.15
IFI35 isoform 2 (UniProt P80217) 0.034
ITIH1 (UniProt P19827) 0.021
ISG15 (UniProt P05161) -0.047
IPO4 isoform 2 (UniProt Q8TEX9) 0.068
ISOC2 (UniProt Q96AB3) 0.065
IGLL5 (UniProt B9A064) 0.006
INTS14 (UniProt Q96SY0) -0.023
ISL2 (UniProt Q96A47) 0.152
ISCU (UniProt Q9H1K1) -0.014
ITCH (UniProt Q96J02) 0

Eight neighbouring records from above, for reference:
log2 fold change, inactive:
IMMP2L (UniProt Q96T52) -0.041
INIP (UniProt Q9NRY2) -0.058
IGF2BP3 (UniProt O00425) 0.269
IKBIP (UniProt Q70UQ0) -0.005
IGSF1 isoform 4 (UniProt Q8N6C5) -0.11
INPP5K (UniProt Q9BT40) 0.15
IFI35 isoform 2 (UniProt P80217) 0.034
ITIH1 (UniProt P19827) 0.021
